Test results taken from the supplement of paper PMC12873370.
“And” between values parts separate entries of the source, which are not always exact repeats. Equal values may be shown once. Some of the results follow. Repeats are few or missing, and single values can be far off.

System: PREPP (mouse prostate epithelium Trp53/Pten KO)
Assay: cell viability relative to untreated (fraction); higher = less growth inhibition
Conditions: 5 µM; 3 days

Row | Structure (SMILES) | cell viability
1 | COc1ccc2cc1Oc1ccc(cc1)C[C@H]1c3c(cc4c(c3Oc3cc5c(cc3OC)CCN(C)[C@@H]5C2)OCO4)CCN1C | 0.709
2 | C[C@@H](O[C@H]1OCCN(Cc2nn(P(=O)(O)O)c(=O)[nH]2)[C@H]1c1ccc(F)cc1)c1cc(C(F)(F)F)cc(C(F)(F)F)c1 | 0.877
3 | CO[C@H]1/C=C/O[C@@]2(C)Oc3c(C)c(O)c4c(O)c(c5c(nc6cc(C)ccn65)c4c3C2=O)NC(=O)/C(C)=C\C=C\[C@H](C)[C@H](O)[C@@H](C)[C@@H](O)[C@@H](C)[C@H](OC(C)=O)[C@@H]1C | 0.836
4 | COc1cc(/C=C/C(=O)N2CCC=CC2=O)cc(OC)c1OC | 0.872
5 | CC(=O)NCCc1c[nH]c2ccc(O)cc12 | 0.901
6 | CCCCCCCCCCC(=O)O | 0.98
7 | Cc1cnc(C)cn1 | 0.923
8 | O=C1C=C(O)C(=O)c2ccccc21 | 0.764
9 | OC[C@H]1O[C@@H](n2cnc3c2N=CNC[C@H]3O)C[C@@H]1O | 0.88
10 | O=C(O)c1cc(O)ccc1O | 0.939
11 | CNCC(=O)O | 0.849
12 | CCCCCCCCCCC[C@@H](C[C@@H]1OC(=O)[C@H]1CCCCCC)OC(=O)[C@H](CC(C)C)NC=O | 1.03
13 | COc1cc(NS(=O)(=O)c2ccc(N)cc2)nc(OC)n1 | 0.822
14 | CC[C@H](C)[C@H](N)C(=O)O | 0.987
15 | N[C@H](CO)C(=O)O | 0.843
16 | CC[C@H](C)[C@@H]1NC(=O)[C@H](Cc2ccc(O)cc2)NC(=O)[C@@H](N)CSSC[C@@H](C(=O)N2CCC[C@H]2C(=O)N[C@@H](CC(C)C)C(=O)NCC(N)=O)NC(=O)[C@H](CC(N)=O)NC(=O)[C@H](CCC(N)=O)NC1=O | 0.929
17 | CC(=O)c1ccc(O)cc1O | 0.795
18 | CO[C@H]1/C=C\C=C(/C)C(=O)NC2=CC(=O)C(NCCN(C)C)=C(C[C@@H](C)C[C@H](OC)[C@H](O)[C@@H](C)/C=C(\C)[C@@H]1OC(N)=O)C2=O | 0.359
19 | C/C1=C\CCC2=C[C@@H](OC2=O)c2c(C)coc2C1 | 1.04
20 | CCCCCC/C=C\CCCCCCCc1cccc(O)c1C(=O)O | 0.918

Row | Structure (SMILES) | cell viability
21 | C[C@H]1c2cccc(O)c2C(=O)C2=C(O)[C@]3(O)C(=O)C(C(N)=O)=C(O)[C@@H](N(C)C)[C@@H]3[C@@H](O)[C@@H]21 | 0.798
22 | CCCCCCCCCC(=O)N[C@H]1[C@H](Oc2c3cc4cc2Oc2ccc(cc2Cl)[C@@H](O[C@@H]2O[C@H](CO)[C@@H](O)[C@H](O)[C@H]2NC(C)=O)[C@@H]2NC(=O)[C@H](NC(=O)[C@@H]4NC(=O)[C@H]4NC(=O)[C@@H](Cc5ccc(c(Cl)c5)O3)NC(=O)[C@H](N)c3ccc(O)c(c3)Oc3cc(O)cc4c3)c3ccc(O)c(c3)-c3c(OC4O[C@H](CO)[C@@H](O)[C@H](O)[C@@H]4O)cc(O)cc3[C@@H](C(=O)O)NC2=O)O[C@H](CO)[C@@H](O)[C@@H]1O (stereo not given in full) | 0.888
23 | NC[C@H]1O[C@H](O[C@H]2[C@H](O)[C@@H](O[C@H]3O[C@H](CO)[C@@H](O)[C@H](N)[C@H]3O)[C@H](N)C[C@@H]2N)[C@H](N)C[C@@H]1O | 0.942 and 0.847
24 | COc1cc(CC(=O)O)ccc1O | 1.06
25 | CCCCCCCCCCCCCCCC(=O)NCCO | 0.906
26 | COc1cc2c(cc1OC)-c1cc3ccc4c(c3c[n+]1CC2)OCO4 | 1.12
27 | N[C@@H](CO)C(=O)O | 0.83
28 | C=C1C(=O)O[C@@H]2/C=C(\C)CC/C=C(\C)CC[C@@H]12 | 0.875
29 | O=C(O)c1ccccc1O | 0.983
30 | O=C1c2ccccc2C(=O)c2c(O)c(O)cc(O)c21 | 0.91
31 | COc1cc2ncnc(Nc3ccc(F)c(Cl)c3)c2cc1OCCCN1CCOCC1 | 0.828
32 | Oc1ccc2ccccc2c1 | 0.954
33 | CC[C@H](C)C(=O)O[C@H]1C[C@H](O)C=C2C=C[C@H](C)[C@H](CC[C@@H](O)C[C@@H](O)CC(=O)O)[C@H]21 | 0.905 and 0.981
34 | Cc1ncc(CO)c(CO)c1O | 0.932 and 1.01
35 | O=c1c(-c2ccc(O)cc2)coc2c([C@@H]3O[C@H](CO)[C@@H](O)[C@H](O)[C@H]3O)c(O)ccc12 | 0.968
36 | CC(C)C[C@H](NC(=O)[C@H]1O[C@@H]1C(=O)O)C(=O)NCCCCN=C(N)N | 0.92
37 | COC(=O)C1=CO[C@@H](O)[C@@H]2C(CO)=CC[C@H]12 | 0.774
38 | CN1[C@@H](CC(=O)c2ccccc2)CCC[C@H]1C[C@H](O)c1ccccc1 | 0.983
39 | C[C@]12C[C@H](O)[C@H]3[C@@H](CCC4=CC(=O)CC[C@@]43C)[C@@H]1CC[C@@H]2C(=O)CO | 0.802
40 | COc1cccc2c1C(=O)c1c(O)c3c(c(O)c1C2=O)C[C@@](O)(C(=O)CO)C[C@@H]3O[C@H]1C[C@H](N)[C@@H](O)[C@H](C)O1 | 0.43

Exported as a markdown table: part of the list above.

| Row | Structure (SMILES) | cell viability |
| --- | --- | --- |
| 19 | C/C1=C\CCC2=C[C@@H](OC2=O)c2c(C)coc2C1 | 1.04 |
| 20 | CCCCCC/C=C\CCCCCCCc1cccc(O)c1C(=O)O | 0.918 |
| 21 | C[C@H]1c2cccc(O)c2C(=O)C2=C(O)[C@]3(O)C(=O)C(C(N)=O)=C(O)[C@@H](N(C)C)[C@@H]3[C@@H](O)[C@@H]21 | 0.798 |
| 22 | CCCCCCCCCC(=O)N[C@H]1[C@H](Oc2c3cc4cc2Oc2ccc(cc2Cl)[C@@H](O[C@@H]2O[C@H](CO)[C@@H](O)[C@H](O)[C@H]2NC(C)=O)[C@@H]2NC(=O)[C@H](NC(=O)[C@@H]4NC(=O)[C@H]4NC(=O)[C@@H](Cc5ccc(c(Cl)c5)O3)NC(=O)[C@H](N)c3ccc(O)c(c3)Oc3cc(O)cc4c3)c3ccc(O)c(c3)-c3c(OC4O[C@H](CO)[C@@H](O)[C@H](O)[C@@H]4O)cc(O)cc3[C@@H](C(=O)O)NC2=O)O[C@H](CO)[C@@H](O)[C@@H]1O (stereo not given in full) | 0.888 |
| 23 | NC[C@H]1O[C@H](O[C@H]2[C@H](O)[C@@H](O[C@H]3O[C@H](CO)[C@@H](O)[C@H](N)[C@H]3O)[C@H](N)C[C@@H]2N)[C@H](N)C[C@@H]1O | 0.942 and 0.847 |
| 24 | COc1cc(CC(=O)O)ccc1O | 1.06 |
| 25 | CCCCCCCCCCCCCCCC(=O)NCCO | 0.906 |
| 26 | COc1cc2c(cc1OC)-c1cc3ccc4c(c3c[n+]1CC2)OCO4 | 1.12 |
| 27 | N[C@@H](CO)C(=O)O | 0.83 |
| 28 | C=C1C(=O)O[C@@H]2/C=C(\C)CC/C=C(\C)CC[C@@H]12 | 0.875 |
| 29 | O=C(O)c1ccccc1O | 0.983 |
| 30 | O=C1c2ccccc2C(=O)c2c(O)c(O)cc(O)c21 | 0.91 |
